Reference: PubChem BioAssay AID2685 (National Center for Advancing Translational Sciences (NCATS), 2010)
The list shows a part of the results. Shown are side measurements of this screen, not its main read-out; they come without a call. The list favours compounds with an active or inconclusive main result. Words in brackets tell the shape of the fitted curve; partial curves, single points and poor fits give uncertain potencies.

Experiment: qHTS Assay for Lipid Storage Modulators in Drosophila S3 Cells;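 on cell number change: cells counted by Cell Tracker Red CMTPX staining in the red channel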
Conditions: BODIPY lipid droplet fluorescence, 18-24 h; for cell number change: measured here: cell count max response, cells fed with added oleic acid
Procedure, shortened: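 Drosophila S3 cells loaded with oleic acid (400 uM, as added) and compounds at several concentrations; lipid droplets imaged by 488-nm laser-scanning cytometry, 500–530 nm intensity and object ratio to cell channel. Percent activity normalized to 20 uM Triacsin C.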

[1] = measured here: lipid fluorescence (Fed channel) AC50, cells fed with added oleic acid
[2] = measured here: cell number channel AC50, cells fed with added oleic acid

For O=C(O)c1cnn(-c2ccccc2)c1-c1ccccc1, which cell number change is on record?
Its cell number change is -10.1%.

And the AC50 [1]?
The AC50 was 23.1 µM [falling, partial curve].

What does the source list for O=C(CCS(=O)(=O)c1ccccc1)Nc1ccc2c(c1)C(=O)NC2=O?
cell number change: -5.32%; AC50 [2]: 2.59 µM [falling, single point]; AC50 [1]: 0.00461 µM [falling, full curve, poor fit]

Which cell number change does the source give for COc1ccccc1-c1ccc2nnc(SC)n2n1 here?
Its cell number change is 19.7%.

And the AC50 [1]?
Its AC50 is 6.51 µM [falling, single point].

With CCn1c(=O)c(C(=O)NNC(=O)c2ccccc2F)c(O)c2ccccc21 as the compound, how does the cell number change read?
Its cell number change is -31%.

And the AC50 [1]?
Its AC50 is 29.1 µM [falling, single point].

For NC(=O)c1sc2nc3c(c(-c4ccco4)c2c1N)CCCC3, which cell number change is on record?
Its cell number change is 8.89%.

What about the AC50 [1] of the same compound?
The AC50 was 32.6 µM [rising, single point].

For COc1cc(C(=O)Nc2cccc(NC(=O)c3ccccc3)c2)cc(OC)c1OC, which cell number change is on record?
Its cell number change is -23.3%.

For CC1CCc2nc3ccc(S(=O)(=O)N4CCC(C(=O)NC(C)c5ccccc5)CC4)cc3c(C(=O)O)c2C1 (stereo not drawn), which AC50 [2] is on record?
Its AC50 is 0.103 µM [rising, full curve, poor fit].

For C/C(=N\Nc1cc(-c2ccccc2)nc(-c2ccccc2)n1)c1ccc(O)c(C)c1, which cell number change is on record?
Its cell number change is -25.9%.

What about the AC50 [1] of the same compound?
Its AC50 is 29.1 µM [falling, single point].

For O=C(Nc1ccc(S(=O)(=O)N2CCN(Cc3ccccc3)CC2)cc1)c1cnccn1, which cell number change is on record?
The cell number change was -14.9%.

With Cc1cccc(C(=O)Nc2cccc(Br)c2)c1[N+](=O)[O-] as the compound, how does the cell number change read?
Its cell number change is 20.1%.

And the AC50 [1]?
The AC50 was 6.51 µM [rising, partial curve, poor fit].

What does the source list for CCOc1ccccc1N(C)C(=O)C1CCN(S(=O)(=O)c2cccc3nonc23)CC1?
cell number change: 2.99%; AC50 [1]: 2.91 µM [rising, single point]

With O=C(NCc1ccccc1)c1ccc(OCC2CCCO2)cc1 (stereo not drawn) as the compound, how does the cell number change read?
The cell number change was -100%.

What about the AC50 [2] of the same compound?
Its AC50 is 6.51 µM [falling, partial curve].

What about the AC50 [1] of the same compound?
Its AC50 is 2.06 µM [rising, partial curve].

For CCCCn1c(N)c(N(CCC(C)C)C(=O)c2ccccc2C)c(=O)[nH]c1=O, which cell number change is on record?
The cell number change was 3.63%.

Which cell number change does the source give for CC(C)(C)c1ccc(C(=O)Nc2nnc(SCC(=O)NCC3CCCO3)s2)cc1 (stereo not drawn) here?
Its cell number change is -13.6%.

For CCOc1cc(Cl)c(S(=O)(=O)NCCCn2ccnc2)cc1Cl, which cell number change is on record?
Its cell number change is -38.7%.

And the AC50 [2]?
Its AC50 is 36.6 µM [falling, partial curve, poor fit].

Which cell number change does the source give for Cc1ccc(NC(=O)CSc2nnc(CNC(=O)C34CC5CC(CC(C5)C3)C4)n2-c2ccc(F)cc2)cc1 here?
The cell number change was -48%.

And the AC50 [2]?
The AC50 was 16.4 µM [falling, single point].

What about the AC50 [1] of the same compound?
Its AC50 is 16.4 µM [falling, partial curve].

With CCC(=O)NNC(=O)c1cc(COc2cc(Cl)cc(Cl)c2)on1 as the compound, how does the cell number change read?
Its cell number change is 62.2%.

And the AC50 [2]?
Its AC50 is 20.6 µM [rising, single point].

With Cc1cccc(OCC(=O)Nc2ccccc2C(=O)N2CCOCC2)c1 as the compound, how does the AC50 [1] read?
Its AC50 is 6.51 µM [falling, single point].

With Cc1cc(F)ccc1S(=O)(=O)NCC(c1ccc2c(c1)OCO2)N1CCOCC1 (stereo not drawn) as the compound, how does the cell number change read?
The cell number change was -14.4%.

With COCCCN1C(=O)/C(=C/c2ccc(CNS(=O)(=O)c3ccccc3)o2)C(C(=O)OC)=C1C as the compound, how does the cell number change read?
Its cell number change is -23.4%.

And the AC50 [1]?
Its AC50 is 0.00461 µM [falling, full curve, poor fit].

Which AC50 [1] does the source give for Cc1ccc(S(=O)(=O)NC2CC(=O)N(c3ccc4c(c3)OCCO4)C2)cc1 (stereo not drawn) here?
The AC50 was 0.00411 µM [rising, full curve, poor fit].

For Cc1ccc(NC(=O)CN2C(=O)NC(C)(c3ccc(Cl)cc3)C2=O)cc1S(=O)(=O)N1CCOCC1 (stereo not drawn), which cell number change is on record?
Its cell number change is -12.5%.

And the AC50 [1]?
Its AC50 is 0.82 µM [rising, partial curve].

Which results are given for CCN(C(=O)c1ccc(S(=O)(=O)N2CCCC2)cc1)C1CCS(=O)(=O)C1 (stereo not drawn)?
cell number change: -12.3%; AC50 [1]: 10.3 µM [falling, partial curve]

Which cell number change does the source give for COc1ccc(S(=O)(=O)Cc2ccc(C(=O)NCC(OC)OC)o2)cc1 here?
The cell number change was 29.7%.

With CC1CN(C(=O)c2cc(S(=O)(=O)N3CCCCC3)ccc2Cl)CC(C)O1 (stereo not drawn) as the compound, how does the cell number change read?
The cell number change was -7.46%.

And the AC50 [1]?
The AC50 was 1.16 µM [rising, partial curve].

For CCn1c2ccccc2c2cc(NC(=O)CSc3nnc(-c4cccc(F)c4)o3)ccc21, which cell number change is on record?
The cell number change was 42.2%.

What about the AC50 [2] of the same compound?
The AC50 was 0.92 µM [rising, partial curve, poor fit].

And the AC50 [1]?
Its AC50 is 6.51 µM [rising, single point].

For C[n+]1ccc(/C=C/c2cccs2)cc1, which cell number change is on record?
The cell number change was 22.9%.

And the AC50 [1]?
Its AC50 is 0.00517 µM [rising, full curve, poor fit].

For O=C(CSc1n[nH]c(-c2ccccc2)n1)NC1CCCCC1, which cell number change is on record?
The cell number change was -34.7%.

What about the AC50 [2] of the same compound?
The AC50 was 29.1 µM [falling, single point].

With O=C(CN1CCN(Cc2ccc3c(c2)OCO3)CC1)N1CCc2[nH]c3ccccc3c2C1 as the compound, how does the cell number change read?
The cell number change was -0.97%.

What does the source list for CN(C)c1ccc(-c2n(C)c3ccccc3[n+]2C)cc1?
cell number change: -75.1%; AC50 [2]: 13 µM [falling, partial curve]; AC50 [1]: 29.1 µM [falling, single point]

Which cell number change does the source give for O=C(NCc1ccc2c(c1)OCO2)c1ccc(COc2cc(Cl)ccc2Cl)o1 here?
Its cell number change is 72.8%.

What about the AC50 [2] of the same compound?
The AC50 was 2.31 µM [rising, partial curve].

What about the AC50 [1] of the same compound?
Its AC50 is 2.06 µM [rising, partial curve].

With CS(=O)(=O)Nc1cccc(C2=NN(C(=O)c3cccc(F)c3)C(c3cccs3)C2)c1 (stereo not drawn) as the compound, how does the cell number change read?
Its cell number change is -9.72%.

With Cc1ccsc1/C=c1\sc2ncnn2c1=O as the compound, how does the cell number change read?
The cell number change was -2.95%.

What about the AC50 [2] of the same compound?
Its AC50 is 6.51 µM [rising, single point].

And the AC50 [1]?
Its AC50 is 29.1 µM [rising, single point].

For COC(=O)COC(=O)c1ccc(Oc2nc(OC)nc(N(C)C)n2)cc1, which cell number change is on record?
The cell number change was 36.5%.

What about the AC50 [2] of the same compound?
Its AC50 is 1.3 µM [rising, full curve, poor fit].

For CCC(C)c1ccc(NC(=O)COC(=O)C2=COCCO2)cc1 (stereo not drawn), which cell number change is on record?
The cell number change was 1.27%.

What about the AC50 [1] of the same compound?
Its AC50 is 0.0058 µM [rising, full curve, poor fit].

With Cc1cc(C)nc(SCc2ccc(C(=O)O)o2)n1 as the compound, how does the cell number change read?
The cell number change was 13.2%.

What about the AC50 [1] of the same compound?
Its AC50 is 10.3 µM [falling, partial curve].

Which cell number change does the source give for O=C(Nc1ccc2c(c1)OCO2)c1cc(-c2ccc(O)cc2)on1 here?
The cell number change was 16.7%.

What about the AC50 [1] of the same compound?
Its AC50 is 18.4 µM [rising, single point].

Which cell number change does the source give for C=CCNS(=O)(=O)c1cccc(C(C)=O)c1 here?
The cell number change was 2.07%.

Which results are given for CC(C)c1onc(C(=O)NCc2ccccn2)c1[N+](=O)[O-]?
cell number change: -14.2%; AC50 [2]: 6.51 µM [falling, partial curve]
